For one compound, IC50 results are on record in patent US9540392B2, “Thienopyrimidines” (BAYER PHARMA AKTIENGESELLSCHAFT, priority 2012, dated 2017).

Amino acid sequences for entries named in this document (tags omitted). Residues count along the entry.
UniProt Q9BUB5, 1-424 isoform Q9BUB5-2 T344D: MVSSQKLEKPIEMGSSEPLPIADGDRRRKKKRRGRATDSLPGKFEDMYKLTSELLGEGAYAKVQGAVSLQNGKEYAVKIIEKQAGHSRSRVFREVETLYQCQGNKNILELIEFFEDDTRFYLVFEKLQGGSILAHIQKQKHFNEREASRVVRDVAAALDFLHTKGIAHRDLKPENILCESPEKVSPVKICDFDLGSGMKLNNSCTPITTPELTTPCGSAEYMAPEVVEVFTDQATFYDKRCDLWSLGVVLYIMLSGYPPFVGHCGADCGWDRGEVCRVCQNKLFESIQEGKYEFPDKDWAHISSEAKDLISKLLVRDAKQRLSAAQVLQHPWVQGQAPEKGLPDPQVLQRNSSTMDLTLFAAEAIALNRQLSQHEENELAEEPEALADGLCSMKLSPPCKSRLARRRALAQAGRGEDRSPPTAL

In this assay the target is T1, human full-length MKNK1 (Homo sapiens, UniProt Q9BUB5, T385D).
T1 construct: GST (N); purchased Carna Biosciences 02-145; host or cells: insect cells (baculovirus expression system)
The assay is described as follows: MKNK1 kinase high ATP assay (TR-FRET). It is filed as biochemical. The following applies: 2 mM ATP, after preincubation with MKNK1. On the procedure: MKNK1-inhibitory activity at high ATP of compounds of the present invention after their preincubation with MKNK1 was quantified employing the TR-FRET-based MKNK1 high ATP assay as described in the following paragraphs.
As substrate for the kinase reaction the biotinylated peptide biotin-Ahx-[…] (C-terminus in amide form) was used, which can be purchased e.g. from the company Biosyntan (Berlin-Buch, Germany). […]
The resulting mixture was incubated for 1 h at 22° C. to allow the formation of complex between the phosphorylated biotinylated peptide and the detection reagents. Subsequently the amount of phosphorylated substrate was evaluated by measurement of the resonance energy transfer from the Eu-chelate to the streptavidine-XL. Therefore, the fluorescence emissions at 620 nm and 665 nm after excitation at 350 nm were measured in a TR-FRET reader, e.g. a Rubystar (BMG Labtechnologies, Offenburg, Germany) or a Viewlux (Perkin-Elmer). […]
On the technique in general: TR-FRET usually uses a lanthanide donor and a delayed reading to cut background.

As to `CCOc1cc2[nH]ncc2cc1Nc1ncnc2sc3c(c12)CCC(C(=O)N1CC(C#N)C1)C3` (racemic) [Example 232, (RS)-1-({4-[(6-Ethoxy-1H-indazol-5-yl)amino]-5,6,7,8-tetrahydro[1]benzothieno[2,3-d]pyrimidin-7-yl}carbonyl)azetidine-3-carbonitrile], the midpoint of inhibition, the IC50, lay at 0.1 nM.

Broadly, the IC50 is the point on the concentration scale where inhibition reaches its midpoint.
